Earlier results as cited in patent US12570647B2 (Saint Louis University, priority 2021, dated 2026).
At least one structure is not confirmed: it was looked up by name or label, or the drawing left a doubt.

How the values were obtained:
[1] = system: S. aureus AR217; parameters: key to Antibiotic susceptibility (R/S/I): R: resistance; S: sensitive; I: intermediate; conditions: S. aureus AR217 (CDC strain), cited from earlier work; for Antibiotic susceptibility (R/S/I): Table 2
[2] = system: S. aureus AR222; parameters: key: R: resistance; S: sensitive; I: intermediate; conditions: Table 2; S. aureus AR222 (CDC strain); cited from earlier work
[3] = system: S. aureus ATCC 25923; parameters: key: R: resistance; S: sensitive; I: intermediate; conditions: Table 2; cited from earlier work
[4] = system: S. aureus AR215; parameters: key to Antibiotic susceptibility (R/S/I): R: resistance; S: sensitive; I: intermediate; conditions: S. aureus AR215 (CDC strain), cited from earlier work; for Antibiotic susceptibility (R/S/I): Table 2

Row | SMILES | Resistance of the strain to the antibiotic [1] | Antibiotic susceptibility (R/S/I) [1] | Antibiotic susceptibility (R/S/I) [2] | Antibiotic susceptibility (R/S/I) [3] | Resistance of the strain to the antibiotic [4] | Antibiotic susceptibility (R/S/I) [4]
1 | C[C@H]1COc2c(N3CCN(C)CC3)c(F)cc3c(=O)c(C(=O)O)cn1c23 [LVX, Levofloxacin] | resistant | R | S | S | resistant | R
2 | CN(C)[C@@H]1C(O)=C(C(N)=O)C(=O)[C@@]2(O)C(O)=C3C(=O)c4c(O)cccc4[C@@](C)(O)[C@H]3C[C@@H]12 [TET, Tetracycline] | – | S | S | S | – | S
3 | CCC[C@@H]1C[C@@H](C(=O)N[C@@H]([C@H]2O[C@H](SC)[C@H](O)[C@@H](O)[C@H]2O)[C@H](C)Cl)N(C)C1 [CLI, Clindamycin] | – | S | S | S | resistant | R
